PubChem BioAssay AID1259308, NCATS, 2017
Aim: 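Candidate targets for better recombinant protein yield in mammalian cells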 (primary screen). Cells: human HEK293 embryonic kidney cells stably expressing firefly luciferase (HEK-CMV-Luc2-Hygro). Reagent: single siRNA against human genes, 0.8 pmol siRNA per well. Timing: 72 h. Detection: 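Luciferase light (ONE-Glo) measured on one replicate plate set and viability (CellTiter-Glo) on the other, scaled to a negative control siRNA, with robust z-scores and luciferase per cell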. Reading the numbers: total luciferase, z-score: higher = more reporter protein produced. Rule for the call: 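Active when the median/MAD z-score for overall luciferase is greater than 3; a gene was taken forward for validation with new siRNAs if at least two of its three siRNAs passed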. Calls: active = raised luciferase; inactive = no rise.
The deposit covers about 59,000 reagents; this is a random part of them. About 1,510 of them (2.6%) were called active. 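Calls use total luciferase alone and ignore viability, so some active siRNAs may act by altering cell number.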 Not all columns of the deposit are shown.

target gene,PubChem SID,"total luciferase, z-score",activity call
MAP7D2 (GeneID 256714),SID160762480,0.464,inactive
MAP7D2 (GeneID 256714),SID160762481,0.819,inactive
MAP7D2 (GeneID 256714),SID160762482,1.87,inactive
LEPROT (GeneID 54741),SID160742090,-1.35,inactive
LEPROT (GeneID 54741),SID160742091,0.795,inactive
LEPROT (GeneID 54741),SID160742092,0.252,inactive
CDH8 (GeneID 1006),SID160740544,0.93,inactive
CDH8 (GeneID 1006),SID160740555,-1.37,inactive
CDH8 (GeneID 1006),SID160740565,0.447,inactive

Reformatted: 2 of the entries above
{"target gene": "MAP7D2 (GeneID 256714)", "PubChem SID": "SID160762480", "total luciferase, z-score": 0.464, "activity call": "inactive"}
{"target gene": "MAP7D2 (GeneID 256714)", "PubChem SID": "SID160762481", "total luciferase, z-score": 0.819, "activity call": "inactive"}

More results follow.
target gene,PubChem SID,"total luciferase, z-score",activity call
LOC729696 (retired record) (GeneID 729696),SID160773060,-1.77,inactive
LOC729696 (retired record) (GeneID 729696),SID160773062,0.885,inactive
LOC729696 (retired record) (GeneID 729696),SID160773063,-1.63,inactive
B3GALT5 (GeneID 10317),SID160728153,1.6,inactive
B3GALT5 (GeneID 10317),SID160728154,2.48,inactive
B3GALT5 (GeneID 10317),SID160728155,-0.0351,inactive
DEFA4 (GeneID 1669),SID160732616,-0.00126,inactive
DEFA4 (GeneID 1669),SID160753683,0.378,inactive
DEFA4 (GeneID 1669),SID160753693,1.29,inactive
SIGLEC12 (GeneID 89858),SID160753467,-0.276,inactive
SIGLEC12 (GeneID 89858),SID160753468,-1.32,inactive
SIGLEC12 (GeneID 89858),SID160753469,-0.783,inactive
PDZD11 (GeneID 51248),SID160740402,5.45,active
PDZD11 (GeneID 51248),SID160740403,0.0664,inactive
PDZD11 (GeneID 51248),SID160740404,-1.42,inactive
